Among the data in PubChem BioAssay AID720533 (National Center for Advancing Translational Sciences (NCATS), 2013) are activity change, negative = inhibition values, retold here.

Values joined by “and” are separate entries in the source; they are usually repeats but may differ in a detail not shown here. Identical values can stand only once. Most of the hits are listed elsewhere, so they are rarer here than in the full data. Records with an inconclusive call do not appear. Active and inactive are the calls of the source. Calls come from the whole dose curve; tested in HEK293 cells.
% is set by controls: 0 for no effect and ±100 for the full control effect.

A short description of this experiment: qHTS for Inhibitors of binding or entry into cells for Lassa Virus. Particulars: Lassa virus pseudotyped entry inhibition, cell-based qHTS; at 49.2 µM (top of the series). (In general: qHTS replaces the single test concentration by a dilution series.)
As to `O=C(CCCCCCC(=O)Nc1ccccc1)NO`, the activity change, negative = inhibition was inactive: -11.6% and inactive: -18.4%.
